# Results are given in words; binding and its absence hold for the method and conditions named. In cells and extracts the contact can be indirect. These calls come from enrichment with a bait or labelling near it, and not all partners need be listed. Sequences can lack the tags named with a protein.
# Chains of the proteins cited; added tags and fusions are not shown. Residues count along the entry.
# UniProt P17745, residues 68-476: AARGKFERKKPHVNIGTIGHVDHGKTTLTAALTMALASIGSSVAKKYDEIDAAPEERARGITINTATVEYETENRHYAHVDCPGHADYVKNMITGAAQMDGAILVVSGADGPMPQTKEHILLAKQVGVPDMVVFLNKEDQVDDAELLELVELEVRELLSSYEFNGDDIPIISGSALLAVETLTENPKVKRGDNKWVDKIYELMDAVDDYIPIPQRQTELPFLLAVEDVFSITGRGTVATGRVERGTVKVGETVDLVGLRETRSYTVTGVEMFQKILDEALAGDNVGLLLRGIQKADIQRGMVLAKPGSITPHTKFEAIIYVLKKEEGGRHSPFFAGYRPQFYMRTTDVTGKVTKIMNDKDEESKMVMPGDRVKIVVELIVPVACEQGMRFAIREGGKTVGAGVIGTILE
# UniProt Q7X9V3, residues 59-258: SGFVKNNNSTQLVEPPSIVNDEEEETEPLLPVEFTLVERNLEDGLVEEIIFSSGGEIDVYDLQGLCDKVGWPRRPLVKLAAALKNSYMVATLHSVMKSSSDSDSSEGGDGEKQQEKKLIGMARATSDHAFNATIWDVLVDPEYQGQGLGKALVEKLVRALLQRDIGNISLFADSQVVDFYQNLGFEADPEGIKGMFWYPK
# Target: T1, GNAT1-GFP (Arabidopsis thaliana) (UniProt Q9C666)
# T1 sequence: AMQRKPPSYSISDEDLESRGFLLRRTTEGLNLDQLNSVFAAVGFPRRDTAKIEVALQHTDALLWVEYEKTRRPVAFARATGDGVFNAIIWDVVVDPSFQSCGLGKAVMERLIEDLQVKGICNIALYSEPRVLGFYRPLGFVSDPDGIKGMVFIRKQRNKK
# Experiment: affinity purification with mass spectrometry; GFP-Trap A beads with 2 mg leaf protein of GNAT1-, GNAT2- or GNAT3-GFP overexpressing Arabidopsis lines, 2 h at 4 °C; extraction buffer 50 mM HEPES-KOH pH 7.5, 150 mM NaCl, 10% glycerol, 2 mM EDTA, 5 mM DTT, 0.5% Triton X-100; label-free quantification against a chloroplast-targeted GFP control line; four biological replicates
row,binding,Substance
1,binds,FNRL
2,binds,FTSZ2-2
3,binds,RABE1b (from UniProt P17745 68-476)
4,binds,FTSZ2-1
5,binds,PTAC17
6,binds,GNAT2 (from UniProt Q7X9V3 59-258) (enzyme)
7,binds,Translocon at the outer Envelope Membrane of Chloroplasts 75-III
8,binds,CPN60A

# Target: T2, GNAT3-GFP (Arabidopsis thaliana) (UniProt Q940H2)
# T2 sequence: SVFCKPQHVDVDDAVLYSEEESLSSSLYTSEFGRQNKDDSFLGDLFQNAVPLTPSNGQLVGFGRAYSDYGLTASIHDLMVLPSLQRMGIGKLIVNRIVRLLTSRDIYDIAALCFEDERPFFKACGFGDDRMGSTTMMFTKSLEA
# Experiment: as above
row,binding,Substance
1,binds,GNAT2 (from UniProt Q7X9V3 59-258) (enzyme)

# Reference: article PMC11585782, “The Plastidial Protein Acetyltransferase GNAT1 Forms a Complex With GNAT2, yet Their Interaction Is Dispensable for State Transitions” (Molecular & Cellular Proteomics : MCP, 2024)
